From PubChem BioAssay AID1508600 (Functional Genomics Laboratory (NCATS/FGL), 2020)
Screen size: about 53,000 sequences; about 3,700 (7%) were called active.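 How the source made its calls: active means gene knockdowns whose robust z-score for IL-1 alpha signal is at least 2 or at most -2, so actives lie on both sides; inactive means the rest.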 The list shows a part of the results.

Test: Components of the Cytosolic LPS Sensing Pathway: Gene Identification via Genome-wide siRNA Screen;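 further: robust z of the log signal after scaling to non-targeting control siRNA wells of the plate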
Settings: RAW264.7 macrophages, IL-1a HTRF, actives lie on both sides, screened at 100 nM (by protocol), cells primed 5 h with Pam3CSK4 first
Outline: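 Mouse macrophage line RAW264.7 is transfected with siRNA (100 nM final), grown 48h, primed with TLR ligand Pam3CSK4 5 h and given intracellular LipidA 24 h. IL-1a in supernatant is read by HTRF and viability by luminescence.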

Row | Sequence | z-score
1 | GCCAAAAGAAAUUUGGGACTT against Txndc9 | inactive: 1.21
2 | GGAACCUAUCCAAGAAGUATT against Ckap2 | inactive: 0.428
3 | GGCCAAGUCUCCAAUUCUATT against Zfp628 | inactive: 0.568
4 | CCAGUUAUGACAAUUAAGATT against Epha3 | inactive: -0.558
5 | CCUCCUCUAUCAAGACAUUTT against Txnl4b | inactive: 0.245
6 | CGGCAGUAAUCCCGUUGACTT against Rcor1 | inactive: 0.701
7 | GCAAGUGUUAGAACACAAGTT against Cish | inactive: 0.823
8 | CCAUACUGUUAUAGUGGUGTT against Olfr25 | inactive: 0.0612
9 | GGUCACCAAACAGCACGUGTT against Cage1 | inactive: 1.69
10 | GCAGUCCUCAGUCGAGAAATT against Aqp9 | inactive: -0.638
11 | CGCAAAGAGGUAAAUGAUCTT against Rps6ka6 | inactive: 0.343
12 | CCUGGAAAGACUCUCGGAGTT against Tpp1 | inactive: 0.424
13 | GGAAAGUUAUACUUUAGGGTT against Zbtb37 | inactive: 1.49
14 | GGCAAGUCUUUAAAAGUCCTT against Xrcc2 | inactive: -1.48
15 | GGGCAAAAUCGUGUCAAGCTT against Dpp9 | inactive: 0.253
16 | GGAUAAAGGAAUCUGAUCUTT against Unc80 | active: -2.58
17 | CCAUUCAUUUUAUCACUUCTT against Il1rn | inactive: 0.372
18 | GGACACUGUGUAUUUUGUATT against Col11a2 | inactive: -0.603
19 | GGAUGAAGAUGGUUCGUCGTT against Kdm1b | inactive: 0.29
20 | GGUUUUCUACAGUUAUUGUTT against Ablim2 | inactive: 1.46
21 | GGUGAACUUCAUCUUCUCUTT against Lrwd1 | inactive: -1.29
22 | GGUUAUCAGAGGUUUAGUUTT against Oser1 | inactive: 0.23
23 | GGUUCUGGACUUCAUCCUCTT against Ocstamp | inactive: 1.42

Row | Sequence | z-score
24 | GGUACUAAUGGAUUACCCATT against BC031181 | inactive: -0.064
25 | GGUCCAAGAAGGAUUACCUTT against Uox | inactive: 0.206
26 | GGGCCUUGUUCCUCUUGAATT against Zfand6 | inactive: -1.51
27 | GCCAAGCUUGUCCAUUGAUTT against Akap9 | inactive: -0.443
28 | GGCUUACCUGAUGGUUGAUTT against Asb14 | inactive: 0.0083
29 | GCAUAUGGAUAAGAUUGUUTT against Efr3a | inactive: -0.363
30 | GGAUCCCACACUUUUCUGATT against Rxra | inactive: 1.28
31 | GGGACCUGAUCAUAAACUATT against Rnf183 | inactive: 1.11
32 | GGAGGGCAUGUACUAUGAGTT against Ctsll3 | inactive: -0.404
33 | GGAACAAGGUAAAAUACAUTT against Nthl1 | active: 3.88
34 | GCCAGUGUUCGUGCCUGAUTT against Pomgnt2 | inactive: -1.21
35 | CCGACUCCCAUGCAUCUAUTT against Mccc2 | inactive: -0.681
36 | GGGAAAAUUUCCUCUGACUTT against Chia1 | active: -2.03
37 | GGAAAGAGACAACUACUUATT against Prokr1 | inactive: 1.1
38 | GGGCAGGAUUCAGGGAACATT against Ntrk3 | inactive: -1.13
39 | CCAUCACUACACGAAAUUGTT against Fgf12 | inactive: 0.176
40 | GCUGCCUAUUUACUGAUCCTT against Chrm3 | inactive: -0.569
41 | GGUGAUGACGAAGGAAUCCTT against Zfpm2 | inactive: -1.51
42 | GGUCAUCCAGCUAUCUGAUTT against Zcchc7 | inactive: 0.192
43 | GCAUUAUACCUGUCAAGUUTT against Klk1b1 | inactive: 0.608
44 | GCGCAACUCCAUGAGGAGATT against Kcnj8 | inactive: 1.2
45 | UUGCAUUACGUGUGGUAUGTT against Mustn1 | inactive: 0.696
46 | CCAGGUGAAAACCAGGAUATT against Olfr205 | inactive: 0.925

Laid out differently: entries from further up
Row	Sequence	z-score
24	GGUACUAAUGGAUUACCCATT against BC031181	inactive: -0.064
25	GGUCCAAGAAGGAUUACCUTT against Uox	inactive: 0.206
26	GGGCCUUGUUCCUCUUGAATT against Zfand6	inactive: -1.51
27	GCCAAGCUUGUCCAUUGAUTT against Akap9	inactive: -0.443
28	GGCUUACCUGAUGGUUGAUTT against Asb14	inactive: 0.0083
29	GCAUAUGGAUAAGAUUGUUTT against Efr3a	inactive: -0.363
30	GGAUCCCACACUUUUCUGATT against Rxra	inactive: 1.28
31	GGGACCUGAUCAUAAACUATT against Rnf183	inactive: 1.11
32	GGAGGGCAUGUACUAUGAGTT against Ctsll3	inactive: -0.404
33	GGAACAAGGUAAAAUACAUTT against Nthl1	active: 3.88
34	GCCAGUGUUCGUGCCUGAUTT against Pomgnt2	inactive: -1.21
35	CCGACUCCCAUGCAUCUAUTT against Mccc2	inactive: -0.681
36	GGGAAAAUUUCCUCUGACUTT against Chia1	active: -2.03
37	GGAAAGAGACAACUACUUATT against Prokr1	inactive: 1.1
38	GGGCAGGAUUCAGGGAACATT against Ntrk3	inactive: -1.13
39	CCAUCACUACACGAAAUUGTT against Fgf12	inactive: 0.176
40	GCUGCCUAUUUACUGAUCCTT against Chrm3	inactive: -0.569
41	GGUGAUGACGAAGGAAUCCTT against Zfpm2	inactive: -1.51

Continued:

Row | Sequence | z-score
47 | GCAAGAUCUGUAUGUCCGCTT against Ebf3 | inactive: 1.38
48 | CCUGUCAAUGCAAGAAUGGTT against Nell1 | inactive: -0.368
49 | GGUUCUAGGACCUAUUUUGTT against Cep57 | inactive: 1.87
50 | GGAUAAUGUUGUCUGUCUATT against Nmd3 | inactive: -0.418
51 | GCCUUUUUGGAGAAUGAAUTT against Rhbdl1 | inactive: -0.33
52 | CAACUCUCUUGCUCAGACATT against Olfr814 | inactive: -0.268
53 | GCGCAGGAUGAGAAGUUCUTT against Slc43a3 | active: 3
54 | GGCAGAAGGCCAGUGGAUUTT against Tmem121b | inactive: 1.21
55 | GGAGCACAGGUCUAUGAACTT against Neu4 | inactive: -0.757
56 | GGUGCUUUAAAGAAAAUGCTT against Msantd3 | inactive: -1.84
57 | GGAUCCUGAAACAGUUCAATT against Atm | inactive: -0.218
58 | GGAAACGUAUUUAAAUCCATT against Fezf2 | inactive: -0.322
59 | GGGAAGUGAGACAUGCUGUTT against Patz1 | inactive: 0.671
60 | UGCCGUAGGACUCAUCGGUTT against Olfr151 | inactive: -0.907
61 | GGCUUAUGUCACCAACUUGTT against Pxdc1 | inactive: -0.533
62 | GGACCAAGCUGUGUACUCUTT against Olfr346 | inactive: -0.867
63 | GCCCAUCUUCCUAGUGUUUTT against Atp6v0b | inactive: 1.43
64 | GGCAGCUAACAAGACAUGUTT against Vegfc | inactive: 0.0932
65 | GCGAACUGUCCAAAACCAATT against Nr5a2 | inactive: -0.709
66 | CGUAUAUCCGGUCAGAAGATT against Cnot4 | inactive: 0.634
67 | CCUAAAAGCCAUUAUCAAATT against Abce1 | inactive: -1.13
68 | GGUGCAAAACAUGUCUCAATT against Olfm1 | inactive: 0.76
69 | GGCCUGGAUAACAGAAAAUTT against Rbp7 | inactive: -0.418
